According to the supplement of paper PMC10849652:
The list shows a part of the results.

Amino acid sequences for entries named in this document (tags omitted). A change or cut given only in a name is not applied to a line headed by its entry.
UniProt Q9NQT8: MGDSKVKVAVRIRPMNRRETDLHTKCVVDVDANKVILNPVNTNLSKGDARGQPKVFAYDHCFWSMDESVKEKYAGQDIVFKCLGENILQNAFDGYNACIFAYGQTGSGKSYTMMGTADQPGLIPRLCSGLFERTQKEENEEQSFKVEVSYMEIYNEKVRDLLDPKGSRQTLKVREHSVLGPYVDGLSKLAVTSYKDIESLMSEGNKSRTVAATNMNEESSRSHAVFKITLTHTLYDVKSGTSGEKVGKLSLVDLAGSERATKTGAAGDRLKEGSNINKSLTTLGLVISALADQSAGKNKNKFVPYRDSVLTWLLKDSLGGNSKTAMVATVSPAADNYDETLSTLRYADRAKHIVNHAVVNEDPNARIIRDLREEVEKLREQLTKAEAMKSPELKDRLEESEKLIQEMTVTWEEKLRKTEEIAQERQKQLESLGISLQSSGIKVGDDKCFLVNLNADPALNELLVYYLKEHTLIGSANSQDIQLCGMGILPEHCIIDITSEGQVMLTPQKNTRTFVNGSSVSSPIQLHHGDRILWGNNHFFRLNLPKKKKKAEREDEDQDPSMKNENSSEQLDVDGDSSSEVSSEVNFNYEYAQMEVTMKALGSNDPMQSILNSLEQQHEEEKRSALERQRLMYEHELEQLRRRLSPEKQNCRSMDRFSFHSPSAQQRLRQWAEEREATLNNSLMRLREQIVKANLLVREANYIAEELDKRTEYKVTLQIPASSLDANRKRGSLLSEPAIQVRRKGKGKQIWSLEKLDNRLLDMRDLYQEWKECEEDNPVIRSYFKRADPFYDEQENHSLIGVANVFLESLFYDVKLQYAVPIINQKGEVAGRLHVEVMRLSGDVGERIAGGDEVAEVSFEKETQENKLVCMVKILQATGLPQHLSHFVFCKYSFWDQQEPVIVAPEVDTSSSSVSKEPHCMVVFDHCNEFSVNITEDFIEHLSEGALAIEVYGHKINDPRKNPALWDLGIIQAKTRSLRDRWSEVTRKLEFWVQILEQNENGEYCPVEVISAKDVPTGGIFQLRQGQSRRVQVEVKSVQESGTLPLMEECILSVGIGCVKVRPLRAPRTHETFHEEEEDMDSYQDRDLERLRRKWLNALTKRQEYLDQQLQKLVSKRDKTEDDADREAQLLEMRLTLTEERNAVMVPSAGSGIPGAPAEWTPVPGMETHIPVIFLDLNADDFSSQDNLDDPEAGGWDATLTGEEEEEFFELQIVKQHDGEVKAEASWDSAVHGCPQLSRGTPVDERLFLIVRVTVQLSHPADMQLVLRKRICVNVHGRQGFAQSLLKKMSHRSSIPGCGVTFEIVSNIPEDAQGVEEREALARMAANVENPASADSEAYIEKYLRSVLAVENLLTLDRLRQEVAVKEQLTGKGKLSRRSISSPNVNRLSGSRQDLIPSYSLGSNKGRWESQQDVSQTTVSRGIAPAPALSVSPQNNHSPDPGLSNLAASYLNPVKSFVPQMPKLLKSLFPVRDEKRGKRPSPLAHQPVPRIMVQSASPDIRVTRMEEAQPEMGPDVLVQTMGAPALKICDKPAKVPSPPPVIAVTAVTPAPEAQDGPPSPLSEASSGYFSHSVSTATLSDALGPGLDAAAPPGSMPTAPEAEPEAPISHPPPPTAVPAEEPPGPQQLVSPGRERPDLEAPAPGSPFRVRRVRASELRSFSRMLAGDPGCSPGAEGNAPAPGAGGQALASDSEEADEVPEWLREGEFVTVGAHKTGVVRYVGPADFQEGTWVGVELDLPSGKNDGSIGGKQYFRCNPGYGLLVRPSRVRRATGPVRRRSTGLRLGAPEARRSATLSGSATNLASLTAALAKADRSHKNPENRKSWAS
UniProt P01042: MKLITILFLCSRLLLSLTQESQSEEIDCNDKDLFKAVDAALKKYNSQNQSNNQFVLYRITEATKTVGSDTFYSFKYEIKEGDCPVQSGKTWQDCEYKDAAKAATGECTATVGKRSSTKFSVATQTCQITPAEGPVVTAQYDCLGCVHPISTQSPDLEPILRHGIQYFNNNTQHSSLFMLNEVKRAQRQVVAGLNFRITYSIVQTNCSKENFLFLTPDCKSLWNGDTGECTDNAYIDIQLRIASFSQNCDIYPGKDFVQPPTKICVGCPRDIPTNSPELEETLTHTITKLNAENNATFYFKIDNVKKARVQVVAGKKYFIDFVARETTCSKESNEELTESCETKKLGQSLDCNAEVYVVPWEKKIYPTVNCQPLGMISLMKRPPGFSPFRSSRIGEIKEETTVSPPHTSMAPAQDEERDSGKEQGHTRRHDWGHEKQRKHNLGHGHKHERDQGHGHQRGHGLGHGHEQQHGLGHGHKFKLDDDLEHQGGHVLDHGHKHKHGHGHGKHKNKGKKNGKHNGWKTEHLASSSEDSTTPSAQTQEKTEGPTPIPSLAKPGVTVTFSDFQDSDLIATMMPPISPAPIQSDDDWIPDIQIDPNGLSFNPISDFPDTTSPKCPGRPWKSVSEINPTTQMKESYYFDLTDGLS
UniProt Q9Y4C1: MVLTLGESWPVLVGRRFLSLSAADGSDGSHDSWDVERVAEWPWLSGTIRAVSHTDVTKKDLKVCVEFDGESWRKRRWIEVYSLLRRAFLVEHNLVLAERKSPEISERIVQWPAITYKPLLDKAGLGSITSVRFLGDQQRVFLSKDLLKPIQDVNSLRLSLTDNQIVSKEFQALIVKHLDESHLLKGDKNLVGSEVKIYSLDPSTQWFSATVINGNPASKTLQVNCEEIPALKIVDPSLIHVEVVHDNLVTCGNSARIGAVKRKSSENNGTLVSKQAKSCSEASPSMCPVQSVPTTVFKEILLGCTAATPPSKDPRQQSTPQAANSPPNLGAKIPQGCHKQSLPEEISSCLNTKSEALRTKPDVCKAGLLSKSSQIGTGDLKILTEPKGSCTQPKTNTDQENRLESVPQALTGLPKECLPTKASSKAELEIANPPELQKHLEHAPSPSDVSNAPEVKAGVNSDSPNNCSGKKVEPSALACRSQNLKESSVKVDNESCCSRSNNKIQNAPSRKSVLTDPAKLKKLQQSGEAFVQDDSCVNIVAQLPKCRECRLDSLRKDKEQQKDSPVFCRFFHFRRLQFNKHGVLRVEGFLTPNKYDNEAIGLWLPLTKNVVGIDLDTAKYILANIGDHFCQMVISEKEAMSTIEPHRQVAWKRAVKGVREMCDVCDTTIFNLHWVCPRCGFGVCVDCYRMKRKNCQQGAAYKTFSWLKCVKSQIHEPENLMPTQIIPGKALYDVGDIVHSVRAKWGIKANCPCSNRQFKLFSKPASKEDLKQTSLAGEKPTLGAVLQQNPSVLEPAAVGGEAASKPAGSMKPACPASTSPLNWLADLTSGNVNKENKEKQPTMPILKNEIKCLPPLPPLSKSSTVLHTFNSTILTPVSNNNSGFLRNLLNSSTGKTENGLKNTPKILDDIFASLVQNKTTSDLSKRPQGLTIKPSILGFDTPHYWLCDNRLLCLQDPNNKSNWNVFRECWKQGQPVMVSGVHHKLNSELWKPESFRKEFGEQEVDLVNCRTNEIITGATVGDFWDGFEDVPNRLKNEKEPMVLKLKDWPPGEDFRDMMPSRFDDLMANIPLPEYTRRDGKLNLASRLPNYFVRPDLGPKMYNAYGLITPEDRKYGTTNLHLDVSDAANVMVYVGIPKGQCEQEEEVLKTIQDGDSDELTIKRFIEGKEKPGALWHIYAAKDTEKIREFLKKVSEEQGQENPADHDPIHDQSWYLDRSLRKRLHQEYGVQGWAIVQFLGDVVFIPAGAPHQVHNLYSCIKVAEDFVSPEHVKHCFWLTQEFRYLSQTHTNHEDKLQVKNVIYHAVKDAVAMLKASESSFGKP
UniProt Q12840: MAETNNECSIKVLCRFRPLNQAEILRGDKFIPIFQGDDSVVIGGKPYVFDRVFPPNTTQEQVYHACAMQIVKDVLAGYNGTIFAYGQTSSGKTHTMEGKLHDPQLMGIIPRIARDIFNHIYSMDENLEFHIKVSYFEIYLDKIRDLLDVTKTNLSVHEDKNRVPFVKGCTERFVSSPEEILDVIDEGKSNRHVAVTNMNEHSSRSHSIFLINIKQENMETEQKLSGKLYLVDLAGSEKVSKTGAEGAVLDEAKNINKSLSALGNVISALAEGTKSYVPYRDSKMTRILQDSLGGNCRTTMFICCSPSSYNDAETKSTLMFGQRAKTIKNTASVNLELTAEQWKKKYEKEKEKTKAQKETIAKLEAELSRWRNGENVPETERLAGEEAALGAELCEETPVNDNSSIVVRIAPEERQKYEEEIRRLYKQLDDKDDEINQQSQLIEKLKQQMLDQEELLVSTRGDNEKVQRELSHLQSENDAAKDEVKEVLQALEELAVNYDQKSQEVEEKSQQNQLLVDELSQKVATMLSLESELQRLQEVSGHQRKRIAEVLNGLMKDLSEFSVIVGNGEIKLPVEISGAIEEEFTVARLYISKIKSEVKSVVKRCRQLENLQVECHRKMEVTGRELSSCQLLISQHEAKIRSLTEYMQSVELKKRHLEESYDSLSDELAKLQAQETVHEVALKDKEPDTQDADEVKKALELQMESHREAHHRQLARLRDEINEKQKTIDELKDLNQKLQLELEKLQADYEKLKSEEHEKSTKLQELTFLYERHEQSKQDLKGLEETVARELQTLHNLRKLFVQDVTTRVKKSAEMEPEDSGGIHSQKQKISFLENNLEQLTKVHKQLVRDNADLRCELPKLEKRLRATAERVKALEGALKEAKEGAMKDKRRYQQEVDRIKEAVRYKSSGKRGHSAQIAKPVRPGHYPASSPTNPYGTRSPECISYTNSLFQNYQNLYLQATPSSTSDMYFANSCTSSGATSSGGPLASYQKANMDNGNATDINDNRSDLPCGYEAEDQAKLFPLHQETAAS
UniProt Q8NB78: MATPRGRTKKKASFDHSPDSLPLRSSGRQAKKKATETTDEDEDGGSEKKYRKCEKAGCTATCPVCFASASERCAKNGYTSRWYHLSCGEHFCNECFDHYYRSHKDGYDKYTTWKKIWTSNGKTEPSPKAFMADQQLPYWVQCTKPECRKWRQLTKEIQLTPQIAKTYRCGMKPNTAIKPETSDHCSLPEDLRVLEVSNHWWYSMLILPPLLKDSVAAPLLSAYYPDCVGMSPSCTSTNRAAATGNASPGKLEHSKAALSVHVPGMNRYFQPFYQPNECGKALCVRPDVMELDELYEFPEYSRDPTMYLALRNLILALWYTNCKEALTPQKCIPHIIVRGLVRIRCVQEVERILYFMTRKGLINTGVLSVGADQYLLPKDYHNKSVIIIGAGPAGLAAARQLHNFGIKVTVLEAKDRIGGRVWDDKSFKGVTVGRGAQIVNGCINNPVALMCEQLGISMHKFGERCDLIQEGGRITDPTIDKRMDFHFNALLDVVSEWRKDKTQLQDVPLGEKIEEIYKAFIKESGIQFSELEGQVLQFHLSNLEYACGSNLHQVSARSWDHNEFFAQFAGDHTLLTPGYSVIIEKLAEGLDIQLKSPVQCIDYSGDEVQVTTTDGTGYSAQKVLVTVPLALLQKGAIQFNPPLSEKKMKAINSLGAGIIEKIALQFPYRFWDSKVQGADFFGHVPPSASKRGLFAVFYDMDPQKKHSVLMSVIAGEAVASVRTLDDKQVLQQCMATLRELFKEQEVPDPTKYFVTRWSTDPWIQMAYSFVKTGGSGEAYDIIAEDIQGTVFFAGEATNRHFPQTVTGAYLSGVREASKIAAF

Compound: c1cn2cc(-c3ccc4cn[nH]c4c3)nc(Nc3ccc(N4CCOCC4)cc3)c2n1 [entospletinib]
Test: log2 fold change, soluble protein after heating vs DMSO (PISA); higher = thermal stabilisation; K562 cells, 10 uM, 30 min; active = over 0.2 and 3.5 SD of the protein, either way, in both replicates (recomputed)
Summary of the method: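 K562 cells at 2×10^6 cells/mL were exposed to 10 μM compound for 30 min, then aliquots were heated for 3 min across 48°C-58°C, pooled, and extracted in PBS containing 0.5% NP-40 at 4°C. The supernatant after 21,000xg for 90 min was taken as soluble protein and measured by TMTpro 16plex LC-MS/MS with channel sums equalised. Thermal stability is reported relative to control samples, with values from duplicates. Fold changes are given on a log2 scale.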

log2 fold change, inactive:
KIF13B (UniProt Q9NQT8) 0.034
KNG1 (UniProt P01042) 0.19
KDM3A (UniProt Q9Y4C1) 0.061
KIF5A (UniProt Q12840) 0.027
KDM1B (UniProt Q8NB78) -0.019
